Percent effect of library compounds

Source: ChEMBL document CHEMBL3988442, “University of Dundee, Small-Polar-MMV Screening Library” (2021).

Values are the deposited “Percent Effect”, in %.
The record does not define 0% and 100%; most values in the screen are far below 50% and negative numbers occur (in some assays of this library far below -100).
Compounds were drawn at random from those tested, without regard to their results.

Mtb cholesterol medium: 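Whole-cell growth test on Mycobacterium tuberculosis, read after 4 days in a medium based on cholesterol and the lipid DPPC; the read-out is not stated. Compounds at 500 µM. Direction is inferred from retests: higher values go with more growth inhibition. Of about 18,000 compounds tested this way, about 900 (5%) reached 50% or more in at least one test.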
Mtb glucose medium: 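Whole-cell growth test on Mycobacterium tuberculosis, read after 3 days in glucose-containing 7H9 medium; the read-out is not stated. Compounds at 500 µM. Direction is inferred from retests: higher values go with more growth inhibition. Of about 18,000 compounds tested this way, about 1,400 (7.9%) reached 50% or more in at least one test.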

| # | SMILES | Mtb cholesterol medium | Mtb glucose medium |
|---|---|---|---|
| 1 | `CN(C)CCNC(=O)c1ccc(Br)o1` | -11.97 | -7.302 |
| 2 | `COc1ccc(C(CO)N(C)Cc2ccncc2)cc1` (centres unmarked) | 26.97 | 20.3 |
| 3 | `NS(=O)(=O)CC1CCCN1` (centres unmarked) | -0.3575 | 0.0415 |
| 4 | `CC(=O)NCC(=O)NC(C)c1nc2cc(C)ccc2[nH]1` (centres unmarked) | 5.553 | 3.431 |
| 5 | `Cc1noc(CN2CCCC(CNS(C)(=O)=O)C2)n1` (centres unmarked) | -14.71 | -6.427 |
| 6 | `O=C(CS(=O)(=O)Cc1cccc(Cl)c1)NCC1CC1` | 53.52 | 67.32 |
| 7 | `Cc1nc(CC(=O)NCCN2CCCCC2CO)cs1` (centres unmarked) | 7.678 | 1.359 |
| 8 | `CNC(=O)CSc1nnc(C2CC2)n1C` | -12.79 | -16.75 |
| 9 | `CCCC1SCCN1C(=O)c1cnc2n[nH]c(C)c2c1` (centres unmarked) | -4.522 | 13.68 |
| 10 | `OC1CCN(C2CNC2)C1` (centres unmarked) | -11.23 | -1.39 |
| 11 | `CC(C)C(=O)NC(C)C(=O)N1CCCCC1` (centres unmarked) | -7.625 | 1.091 |
| 12 | `CC(N)c1ccc(N2CCCCC2=O)cc1` (centres unmarked) | -6.675 | -13.13 |
| 13 | `OC[C@H](Cc1ccc(O)cc1)NC1CCSC1` (some centres unmarked) | 23.9 | 12.99 |
| 14 | `CCC(NC(=O)c1cc(=O)cc(C)o1)c1nc(C)no1` (centres unmarked) | -12.73 | -25.85 |
| 15 | `CC(CN)N(C)C(=O)c1cccc(F)c1Cl` (centres unmarked) | 24.68 | 15.72 |
| 16 | `O=C(Cc1ccccc1)NC1CCNCC1` | -8.233 | -3.139 |
| 17 | `CNC(=O)Cn1cnc2c1c(=O)[nH]c(=O)n2C` | -14.34 | -1.372 |
| 18 | `CC(C)Cc1nc(C#N)c(N)o1` | 27 | 19.09 |
| 19 | `Cc1nc(C(=O)NCCN2CCOCC2)co1` | -8.909 | -7.307 |
| 20 | `Cc1nnc(NC(=O)NCC2CCNCC2)s1` | -10.63 | -12.74 |
| 21 | `Cc1ccccc1CC(=O)NC1CCS(=O)(=O)C1` (centres unmarked) | 6.321 | 1.102 |
| 22 | `CNC(=O)C1CCCN1C(=O)c1ccc(Cl)c(Cl)c1` (centres unmarked) | 15.04 | 27.09 |
| 23 | `O=C(CCc1ccsc1)NCC(=O)N1CCOCC1` | 3.354 | 15.08 |
| 24 | `COc1ccc(C)c(NC(=O)N(C)CCN(C)C)c1` | -2.142 | -3.287 |
| 25 | `Nc1ccn(-c2ccc(C(F)(F)F)cn2)n1` | -1.129 | 29.88 |
| 26 | `CCn1ccnc1CN(C)CCC(=O)NC(C)C` | -21.45 | -13.01 |
| 27 | `CCCNC(=O)C1CCCN1` (centres unmarked) | 0.4254 | 26.53 |
| 28 | `c1cnc(N2CCCC2)c(NC2CCNCC2)c1` | -35.82 | -8.25 |
| 29 | `COC(=O)N1CCC(Nc2nnc(C(F)(F)F)s2)CC1` | 66.45 | 56.92 |
| 30 | `CN(C)C(=O)N1CCN(C(=O)CC2CCNCC2)CC1` | -10.7 | 0.4924 |
| 31 | `Cc1ccc(NC(=O)C(C)N2CCC(O)CC2)cc1F` (centres unmarked) | 54.47 | 61.53 |
| 32 | `CCOC(=O)c1cccnc1NCc1cnn(C)c1C` | 64.56 | 64.5 |
| 33 | `CC(C)Oc1cccc(C(=O)NC2CCN(C)CC2)c1` | 8.152 | 22.48 |
| 34 | `COc1ccc(N2CCN(CCCN)CC2)cc1` | 18.8 | 30.59 |
| 35 | `CC(=O)c1cccc(N2CCOCC2)c1` | 8.98 | 9.836 |
| 36 | `N#Cc1ccc(C(=O)N2CCCO2)cc1` | 6.943 | 18.74 |
| 37 | `Cc1noc(C)c1S(=O)(=O)NCC(C)(O)c1ccsc1` (centres unmarked) | -4.56 | 28.71 |
| 38 | `NC(=O)c1cncc(-c2ccc(F)cc2Cl)c1` | -5.39 | 22.6 |
| 39 | `O=C1COCC(Cc2ccccc2)N1` (centres unmarked) | -10.52 | 9.841 |
| 40 | `CN(Cc1ccco1)S(=O)(=O)CCN1CCCC1` | 23.14 | 41.98 |
| 41 | `Cn1cncc1CCNC(=O)c1ccc(C#N)cc1` | -7.487 | 6.735 |
| 42 | `CCn1nccc1[C@@H]1OCC[C@H]1CN` | 10.29 | 16.36 |
| 43 | `CC1(C)CS(=O)(=O)CCN1Cc1ccc(Cl)cc1F` | -2.13 | 8.495 |
| 44 | `OC1CCN(CC2CCCCO2)CC1` (centres unmarked) | -12.88 | 2.384 |
| 45 | `CCNC(=O)C1CCN(Cc2cc(C)on2)CC1` | -10.42 | 2.45 |
| 46 | `CC(O)CCS(C)(=O)=O` (centres unmarked) | -17.55 | -15.42 |
| 47 | `CCCn1ccc(NC(=O)c2cccc(C#N)c2)n1` | 42.02 | 56.78 |
| 48 | `COc1cccc2c1OCCC2N` (centres unmarked) | 2.245 | 5.665 |
| 49 | `O=C1Nc2ccccc2NC12CCCC2` | 5.816 | 4.684 |
| 50 | `c1ccc(COCCc2noc(C3CNC3)n2)cc1` | 112.2 | 101.5 |
| 51 | `CN(C)c1ccc(C2NCCc3[nH]cnc32)cn1` (centres unmarked) | 0.8671 | 14.1 |
| 52 | `CN(CCCNc1ncc(C(N)=O)cc1Cl)S(C)(=O)=O` | 12.82 | 32.07 |
| 53 | `Cn1nccc1[C@@H]1OCCC[C@H]1CN` | 2.469 | 8.217 |
| 54 | `N#CC1COCCN1Cc1ccc2ncccc2c1` (centres unmarked) | -18.21 | -25.4 |
| 55 | `CC(=O)Cn1nc(C)c(Br)c1C` | 4.093 | 9.268 |
| 56 | `CC(=O)NCCS(=O)(=O)N1CCc2ccccc21` | 3.504 | 22.43 |
| 57 | `O=C1CNCN1Cc1ccccc1` | 0.3151 | 2.637 |
| 58 | `COCCNCC(=O)Nc1cccc(C(C)SC)c1` (centres unmarked) | 7.833 | 41.57 |
| 59 | `Cc1ccc(F)cc1S(=O)(=O)N1C[C@H](C2CC2)[C@@H](N)C1` | 32 | 57.87 |
| 60 | `COc1cccc(CNS(=O)(=O)Cc2ccon2)c1` | -4.469 | 13.77 |
| 61 | `CCC(c1cccnc1)N(C)C(=O)CNC` (centres unmarked) | -4.709 | 7.169 |
| 62 | `CCO[C@H]1CN(C)C[C@@H]1NC(=O)c1nc(C(C)C)cs1` | 13.13 | 22.44 |
| 63 | `Cn1cnc(S(=O)(=O)N(CC(N)=O)C2CCCC2)c1Cl` | -20.11 | -12.12 |
| 64 | `O=C1NCCCc2[nH]c(C3(Cn4cccn4)CC3)nc21` | -1.729 | 9.912 |
| 65 | `CSCc1noc(CN2CC[C@@](C)(O)[C@@H](O)C2)n1` | -1.066 | -1.095 |
| 66 | `CN(CC(=O)NCCC#N)CC1CCN(CCO)CC1` | -6.512 | 9.245 |
| 67 | `CC(C)Sc1ncccc1C(=O)NCC1CCOC1` (centres unmarked) | -0.9223 | 0.5454 |
| 68 | `CC(C1CCN(Cc2c[nH]cn2)CC1)N1CCCC1` (centres unmarked) | -17.92 | 8.51 |
| 69 | `O=C(C1CCOCC1)N1CCCC1CN1CCCC1` (centres unmarked) | -12.92 | -21.1 |
| 70 | `Cc1ccc(-c2nnc(SCC(=O)N(C)C)n2C)cc1` | 38.94 | 19.92 |
| 71 | `NC(=O)C[C@H](N)c1cccc(Cl)c1` | -6.87 | -2.514 |
| 72 | `COCCN(C)CCCNC(=O)c1cnc(C)cn1` | 21.1 | 5.887 |
| 73 | `COCc1noc(CNc2cc(C)nc(N)n2)n1` | -0.8846 | -1.077 |
| 74 | `COc1cc(F)c(C(C)=O)cc1OC` | -9.899 | 3.074 |
| 75 | `CNCC1CN(Cc2ccccc2)CCO1` (centres unmarked) | -33.54 | -8.11 |
| 76 | `O=C(NCC(=O)N1CCCC1)c1cc2ncccn2n1` | -7.62 | 17.56 |
| 77 | `CCCS(=O)(=O)N1CCc2n[nH]c(=O)n2CC1` | -0.02656 | 7.576 |
| 78 | `Cc1cc(CNC(=O)C2CCCNC2)n(C)n1` (centres unmarked) | 4.323 | 5.92 |
| 79 | `CC(Sc1nnc(C(C)(C)C)o1)C(=O)NC(N)=O` (centres unmarked) | -9.243 | -2.996 |
| 80 | `Cn1cc([C@@H]2C[C@H]2N)cn1` | 1.561 | -5.447 |
| 81 | `N#CC1(C(=O)NCc2ccccc2F)CC1` | 61.86 | 23.24 |

For reference, 4 entries once more:

* NC(=O)C[C@H](N)c1cccc(Cl)c1 : Mtb cholesterol medium: -6.87%; Mtb glucose medium: -2.514%
* O=C1NCCCc2[nH]c(C3(Cn4cccn4)CC3)nc21 : Mtb cholesterol medium: -1.729%; Mtb glucose medium: 9.912%
* CCCS(=O)(=O)N1CCc2n[nH]c(=O)n2CC1 : Mtb cholesterol medium: -0.02656%; Mtb glucose medium: 7.576%
* CC(C)Cc1nc(C#N)c(N)o1 : Mtb cholesterol medium: 27%; Mtb glucose medium: 19.09%